Experimental data as given in the supplement of paper PMC10849652.
The list shows a part of the results.

Protein sequences, listed by entry. Tags and fused reporters are not part of them. Lines headed by an entry give the natural chain unless they say otherwise; changes in a name come on top.
UniProt P30153, whole entry, looked up: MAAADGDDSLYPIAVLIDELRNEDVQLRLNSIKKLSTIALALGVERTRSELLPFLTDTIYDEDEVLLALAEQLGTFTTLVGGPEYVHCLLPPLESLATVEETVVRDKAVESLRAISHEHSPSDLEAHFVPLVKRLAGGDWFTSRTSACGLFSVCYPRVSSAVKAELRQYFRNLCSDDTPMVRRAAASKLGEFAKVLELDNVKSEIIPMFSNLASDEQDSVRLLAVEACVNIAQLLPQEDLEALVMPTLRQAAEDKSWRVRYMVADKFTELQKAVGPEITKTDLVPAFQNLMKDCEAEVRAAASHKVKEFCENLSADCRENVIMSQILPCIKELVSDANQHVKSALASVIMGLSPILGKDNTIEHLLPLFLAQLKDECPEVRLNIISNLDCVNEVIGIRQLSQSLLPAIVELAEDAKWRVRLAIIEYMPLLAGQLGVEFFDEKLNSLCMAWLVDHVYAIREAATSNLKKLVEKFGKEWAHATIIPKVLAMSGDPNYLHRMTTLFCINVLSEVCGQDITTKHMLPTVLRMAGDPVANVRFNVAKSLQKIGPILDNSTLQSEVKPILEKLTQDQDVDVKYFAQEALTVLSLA
UniProt Q9H2H8: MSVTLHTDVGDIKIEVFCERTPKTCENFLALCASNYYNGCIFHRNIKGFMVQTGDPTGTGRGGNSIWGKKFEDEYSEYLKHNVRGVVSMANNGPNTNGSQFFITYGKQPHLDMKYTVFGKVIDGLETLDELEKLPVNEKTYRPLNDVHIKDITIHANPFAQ
UniProt Q6PFW1: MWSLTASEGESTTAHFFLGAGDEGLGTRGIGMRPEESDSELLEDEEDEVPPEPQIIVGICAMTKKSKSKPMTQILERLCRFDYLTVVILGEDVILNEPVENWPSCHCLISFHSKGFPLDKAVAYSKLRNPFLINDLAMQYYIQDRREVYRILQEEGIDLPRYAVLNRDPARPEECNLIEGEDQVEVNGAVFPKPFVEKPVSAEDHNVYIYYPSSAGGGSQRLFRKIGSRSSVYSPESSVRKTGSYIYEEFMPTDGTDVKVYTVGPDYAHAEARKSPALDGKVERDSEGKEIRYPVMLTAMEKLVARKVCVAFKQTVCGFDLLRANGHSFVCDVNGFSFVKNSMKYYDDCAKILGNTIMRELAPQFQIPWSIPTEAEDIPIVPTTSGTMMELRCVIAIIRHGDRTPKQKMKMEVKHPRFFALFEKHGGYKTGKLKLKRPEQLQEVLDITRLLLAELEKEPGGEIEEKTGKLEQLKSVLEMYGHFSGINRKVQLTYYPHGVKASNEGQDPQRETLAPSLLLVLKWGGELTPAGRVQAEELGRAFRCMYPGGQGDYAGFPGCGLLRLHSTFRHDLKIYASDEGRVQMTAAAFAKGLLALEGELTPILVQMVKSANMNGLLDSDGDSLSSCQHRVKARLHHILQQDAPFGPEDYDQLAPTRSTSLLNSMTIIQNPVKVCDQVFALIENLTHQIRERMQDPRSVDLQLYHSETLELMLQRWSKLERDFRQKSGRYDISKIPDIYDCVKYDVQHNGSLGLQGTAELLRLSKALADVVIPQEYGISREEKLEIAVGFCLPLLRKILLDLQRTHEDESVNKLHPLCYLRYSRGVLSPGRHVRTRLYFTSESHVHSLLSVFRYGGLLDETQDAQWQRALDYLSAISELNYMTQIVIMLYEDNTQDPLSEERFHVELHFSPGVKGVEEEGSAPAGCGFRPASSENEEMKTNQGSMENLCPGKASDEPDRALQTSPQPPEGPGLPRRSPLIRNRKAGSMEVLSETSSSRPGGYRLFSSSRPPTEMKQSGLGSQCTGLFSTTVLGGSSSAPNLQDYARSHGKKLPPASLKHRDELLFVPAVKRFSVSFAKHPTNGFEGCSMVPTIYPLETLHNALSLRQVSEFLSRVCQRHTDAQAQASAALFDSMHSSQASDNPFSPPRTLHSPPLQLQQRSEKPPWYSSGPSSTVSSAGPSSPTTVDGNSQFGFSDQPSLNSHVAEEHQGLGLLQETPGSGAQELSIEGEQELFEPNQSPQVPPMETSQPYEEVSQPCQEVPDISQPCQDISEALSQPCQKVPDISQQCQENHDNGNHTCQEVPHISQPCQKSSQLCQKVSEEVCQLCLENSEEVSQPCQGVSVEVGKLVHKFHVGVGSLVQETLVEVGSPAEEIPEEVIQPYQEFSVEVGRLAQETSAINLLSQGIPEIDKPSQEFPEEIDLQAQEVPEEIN
UniProt Q96A00: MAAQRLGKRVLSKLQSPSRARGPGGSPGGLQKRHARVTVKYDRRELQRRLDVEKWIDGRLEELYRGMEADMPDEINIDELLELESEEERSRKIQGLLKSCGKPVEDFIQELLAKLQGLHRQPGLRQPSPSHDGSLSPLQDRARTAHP
UniProt P41236: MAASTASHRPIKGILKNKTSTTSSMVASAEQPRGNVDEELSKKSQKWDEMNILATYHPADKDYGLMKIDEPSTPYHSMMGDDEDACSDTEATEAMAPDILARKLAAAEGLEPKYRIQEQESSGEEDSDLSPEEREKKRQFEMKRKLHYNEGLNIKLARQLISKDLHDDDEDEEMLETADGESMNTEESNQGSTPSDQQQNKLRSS
UniProt P14314: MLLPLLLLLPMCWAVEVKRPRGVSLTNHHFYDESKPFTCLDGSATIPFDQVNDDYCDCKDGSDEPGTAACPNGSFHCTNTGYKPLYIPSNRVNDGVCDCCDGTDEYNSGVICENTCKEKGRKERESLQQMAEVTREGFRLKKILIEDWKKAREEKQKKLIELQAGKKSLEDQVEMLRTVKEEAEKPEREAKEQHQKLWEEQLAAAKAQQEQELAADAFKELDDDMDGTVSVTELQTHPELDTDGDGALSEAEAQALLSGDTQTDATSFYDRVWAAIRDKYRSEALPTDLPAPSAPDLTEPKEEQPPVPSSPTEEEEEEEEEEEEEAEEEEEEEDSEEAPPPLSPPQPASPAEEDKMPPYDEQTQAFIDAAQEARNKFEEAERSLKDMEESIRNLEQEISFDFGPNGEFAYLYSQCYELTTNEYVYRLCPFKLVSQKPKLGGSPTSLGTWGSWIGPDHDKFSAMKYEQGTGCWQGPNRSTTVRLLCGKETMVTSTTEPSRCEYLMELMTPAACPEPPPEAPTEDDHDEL
UniProt P32119: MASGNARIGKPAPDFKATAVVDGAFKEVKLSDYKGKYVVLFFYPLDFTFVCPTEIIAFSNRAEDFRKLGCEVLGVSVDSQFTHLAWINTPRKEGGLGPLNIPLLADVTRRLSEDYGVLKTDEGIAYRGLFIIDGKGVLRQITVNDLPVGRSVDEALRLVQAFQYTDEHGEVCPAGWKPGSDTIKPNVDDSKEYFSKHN
UniProt P31323, whole entry, looked up: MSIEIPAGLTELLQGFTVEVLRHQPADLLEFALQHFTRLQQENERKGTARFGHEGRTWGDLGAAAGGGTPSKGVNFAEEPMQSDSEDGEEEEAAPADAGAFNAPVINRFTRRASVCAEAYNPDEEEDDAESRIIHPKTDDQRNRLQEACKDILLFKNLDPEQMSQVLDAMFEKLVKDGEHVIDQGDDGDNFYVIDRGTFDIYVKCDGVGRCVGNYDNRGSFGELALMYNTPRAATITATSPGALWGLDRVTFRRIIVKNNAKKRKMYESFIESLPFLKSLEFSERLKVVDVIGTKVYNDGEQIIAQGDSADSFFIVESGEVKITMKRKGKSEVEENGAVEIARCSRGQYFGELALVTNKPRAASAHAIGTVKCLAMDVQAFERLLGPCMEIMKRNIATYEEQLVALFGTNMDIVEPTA
UniProt P36873, whole entry, looked up: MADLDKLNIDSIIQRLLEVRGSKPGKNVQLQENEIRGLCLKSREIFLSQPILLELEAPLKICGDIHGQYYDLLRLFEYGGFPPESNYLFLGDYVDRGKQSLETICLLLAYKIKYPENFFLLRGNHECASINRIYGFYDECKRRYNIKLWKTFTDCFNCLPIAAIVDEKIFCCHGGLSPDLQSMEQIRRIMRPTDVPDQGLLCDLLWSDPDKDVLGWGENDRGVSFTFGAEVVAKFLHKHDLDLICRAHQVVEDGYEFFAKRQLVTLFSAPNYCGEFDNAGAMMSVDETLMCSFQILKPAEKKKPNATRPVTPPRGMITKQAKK
UniProt Q9ULR3: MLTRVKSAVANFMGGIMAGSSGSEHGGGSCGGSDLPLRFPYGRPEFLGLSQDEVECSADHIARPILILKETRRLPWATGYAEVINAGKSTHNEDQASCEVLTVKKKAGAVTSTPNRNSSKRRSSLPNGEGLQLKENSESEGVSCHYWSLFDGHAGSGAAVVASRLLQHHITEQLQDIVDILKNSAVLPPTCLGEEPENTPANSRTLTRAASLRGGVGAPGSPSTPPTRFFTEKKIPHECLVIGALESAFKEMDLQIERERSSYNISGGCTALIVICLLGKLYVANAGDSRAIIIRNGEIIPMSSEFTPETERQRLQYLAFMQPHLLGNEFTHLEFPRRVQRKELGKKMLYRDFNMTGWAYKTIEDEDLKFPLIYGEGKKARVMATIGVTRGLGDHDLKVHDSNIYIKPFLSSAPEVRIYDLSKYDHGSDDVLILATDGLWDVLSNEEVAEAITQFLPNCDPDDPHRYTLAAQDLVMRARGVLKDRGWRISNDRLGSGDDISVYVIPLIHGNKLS
UniProt Q13523: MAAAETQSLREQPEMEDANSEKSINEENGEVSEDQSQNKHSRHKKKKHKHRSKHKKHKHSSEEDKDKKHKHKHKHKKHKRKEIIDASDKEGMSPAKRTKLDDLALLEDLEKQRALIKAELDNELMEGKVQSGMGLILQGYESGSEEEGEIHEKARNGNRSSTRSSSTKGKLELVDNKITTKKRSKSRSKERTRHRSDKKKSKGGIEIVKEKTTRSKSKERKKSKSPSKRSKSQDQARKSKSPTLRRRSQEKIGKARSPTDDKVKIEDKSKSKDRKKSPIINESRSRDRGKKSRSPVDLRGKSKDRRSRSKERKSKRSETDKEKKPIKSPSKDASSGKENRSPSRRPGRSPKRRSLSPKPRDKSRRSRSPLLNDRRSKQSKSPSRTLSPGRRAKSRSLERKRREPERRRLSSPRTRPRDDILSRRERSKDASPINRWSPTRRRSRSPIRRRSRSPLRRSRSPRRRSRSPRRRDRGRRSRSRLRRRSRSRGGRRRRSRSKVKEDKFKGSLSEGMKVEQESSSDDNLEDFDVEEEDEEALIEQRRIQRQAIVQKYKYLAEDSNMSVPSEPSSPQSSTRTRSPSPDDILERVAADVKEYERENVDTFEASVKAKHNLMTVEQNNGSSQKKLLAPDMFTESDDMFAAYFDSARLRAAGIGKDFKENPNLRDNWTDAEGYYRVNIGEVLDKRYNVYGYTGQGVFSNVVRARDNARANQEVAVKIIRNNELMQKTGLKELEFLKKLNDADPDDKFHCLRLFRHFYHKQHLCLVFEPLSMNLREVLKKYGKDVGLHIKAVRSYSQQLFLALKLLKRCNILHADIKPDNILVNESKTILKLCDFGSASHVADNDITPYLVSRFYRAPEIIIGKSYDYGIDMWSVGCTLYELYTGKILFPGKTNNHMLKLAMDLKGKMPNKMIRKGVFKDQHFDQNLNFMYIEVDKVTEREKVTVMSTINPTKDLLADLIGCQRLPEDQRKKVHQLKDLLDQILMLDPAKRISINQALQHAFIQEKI
UniProt O75688: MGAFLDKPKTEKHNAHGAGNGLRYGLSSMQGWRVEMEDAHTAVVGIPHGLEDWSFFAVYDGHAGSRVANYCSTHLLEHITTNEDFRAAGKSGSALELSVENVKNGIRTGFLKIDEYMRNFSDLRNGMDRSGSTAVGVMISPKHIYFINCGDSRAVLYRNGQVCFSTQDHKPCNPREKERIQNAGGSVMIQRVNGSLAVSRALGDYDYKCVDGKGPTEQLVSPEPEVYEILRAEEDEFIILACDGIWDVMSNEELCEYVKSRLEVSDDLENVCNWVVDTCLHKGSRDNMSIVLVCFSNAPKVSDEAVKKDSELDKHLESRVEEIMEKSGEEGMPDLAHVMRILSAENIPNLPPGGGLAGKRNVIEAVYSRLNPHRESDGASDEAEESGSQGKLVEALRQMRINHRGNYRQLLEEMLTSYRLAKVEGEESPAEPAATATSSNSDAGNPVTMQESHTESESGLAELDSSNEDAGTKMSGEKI
UniProt O43172: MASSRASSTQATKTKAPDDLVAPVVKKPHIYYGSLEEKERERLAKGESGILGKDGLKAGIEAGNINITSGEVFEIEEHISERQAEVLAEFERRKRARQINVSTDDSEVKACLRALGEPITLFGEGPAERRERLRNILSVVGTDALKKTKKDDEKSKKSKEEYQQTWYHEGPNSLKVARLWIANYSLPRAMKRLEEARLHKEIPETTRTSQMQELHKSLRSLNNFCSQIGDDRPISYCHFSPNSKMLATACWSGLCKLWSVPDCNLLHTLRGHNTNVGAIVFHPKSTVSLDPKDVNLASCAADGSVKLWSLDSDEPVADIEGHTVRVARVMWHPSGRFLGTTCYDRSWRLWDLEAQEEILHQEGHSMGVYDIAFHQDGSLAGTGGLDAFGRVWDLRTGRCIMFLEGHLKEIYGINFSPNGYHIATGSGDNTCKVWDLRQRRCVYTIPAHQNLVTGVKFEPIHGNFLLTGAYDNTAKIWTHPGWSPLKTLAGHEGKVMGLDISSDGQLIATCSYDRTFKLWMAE

Tests used:
Assay in all cases: log2 fold change, soluble protein after heating vs DMSO (PISA); higher = thermal stabilisation; K562 lysate, 10 uM; active = over 0.2 and 3.5 SD of the protein, either way, in both replicates (recomputed)
[1] = compound: C1=CC=C(C=C1)[C@H](COC2=CC3=C(C=C2)NC(=O)N3)NC(=O)C4=CC=CN(C4=O)CC5=CC(=C(C=C5)F)F
Procedure, shortened: (§1)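 Quantification was by TMTpro 16plex LC-MS/MS with equalised channel sums, applied to the supernatant after 21,000xg for 90 min. Samples were crude K562 extract at 1 mg/mL protein in PBS pH 7.4 with 1 mM MgCl2, treated with 10 μM compound for 30 min, heated for 3 min across 48°C-58°C, pooled and brought to 0.5% NP-40 at 4°C. Values are log-two fold changes in thermal stability relative to solvent controls, from duplicates.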

[2] = compound: CC1=C(SC2=C1C(=N[C@H](C3=NN=C(N32)C)CC(=O)N)C4=CC=C(C=C4)Cl)C
Procedure, shortened: as §1

[3] = compound: CC1=C2C(=CC=C1)N=C(N(C2=O)C3=CC=CC=C3C)CN4C=NC5=C(N=CN=C54)N
Procedure, shortened: as §1

[4] = compound: Cc1sc2c(c1C)C(c1ccc(Cl)cc1)=N[C@@H](CC(=O)OC(C)(C)C)c1nnc(C)n1-2
Procedure, shortened: as §1

[5] = compound: c1ccc([C@@H]2C[C@H]2NC2CCNCC2)cc1
Procedure, shortened: as §1

Row | Target | log2 fold change [1] | log2 fold change [2] | log2 fold change [3] | log2 fold change [4] | log2 fold change [5]
1 | PPP4R4 (UniProt Q6NUP7) | inactive: 0.053 | inactive: 0.028 | inactive: 0.053 | inactive: -0.047 | 
2 | PRDM10 isoform 6 (UniProt Q9NQV6) | inactive: -0.079 | inactive: 0.033 | inactive: 0.064 |  | 
3 | PRDX6 (UniProt P30041) | inactive: -0.001 | inactive: -0.003 | inactive: 0.003 | inactive: 0.007 | inactive: 0.03
4 | PRIMPOL (UniProt Q96LW4) | inactive: 0.009 | inactive: 0.009 | inactive: -0.015 | inactive: -0.024 | 
5 | PRKAR1B (UniProt P31321) | inactive: 0.015 | inactive: 0.024 | inactive: -0.069 | inactive: 0.173 | inactive: 0.063
6 | PPP1R9B (UniProt Q96SB3) | inactive: 0.039 | inactive: 0 | inactive: -0.072 | inactive: 0.027 | inactive: 0.074
7 | PRPF38A (UniProt Q8NAV1) | inactive: 0.034 | inactive: -0.055 | inactive: -0.08 | inactive: -0.024 | inactive: -0.133
8 | PPP1R10 (UniProt Q96QC0) | inactive: -0.025 | inactive: -0.002 | inactive: 0.011 | inactive: 0.014 | inactive: 0.001
9 | PRICKLE3 (UniProt O43900) | inactive: -0.039 | inactive: -0.055 |  |  | 
10 | PRKCA (UniProt P17252) | inactive: 0.01 | inactive: -0.012 | inactive: -0.061 | inactive: 0.021 | inactive: 0.089
11 | PPP1R21 (UniProt Q6ZMI0) | inactive: -0.003 | inactive: -0.002 | inactive: 0.03 | inactive: 0.051 | inactive: 0.027
12 | PPP2R1A (UniProt P30153) | inactive: -0.017 | inactive: 0.014 | inactive: -0.001 | inactive: 0.006 | inactive: 0.039
13 | PPIL3 (UniProt Q9H2H8) | inactive: 0.067 | inactive: -0.012 | inactive: 0.035 | inactive: 0.028 | active: -0.237
14 | PPIP5K2 (UniProt H0Y9S9) | inactive: 0 | inactive: -0.086 | inactive: 0.175 | inactive: -0.077 | 
15 | PRDM2 (UniProt Q13029) | inactive: 0.255 | inactive: -0.094 | inactive: -0.068 | inactive: 0.043 | inactive: -0.014
16 | PREPL (UniProt Q4J6C6) | inactive: -0.016 | inactive: -0.006 | inactive: 0.004 | inactive: -0.02 | inactive: 0.004
17 | PPP1R12B isoform 6 (UniProt O60237) | inactive: 0.043 | inactive: 0.033 | inactive: 0.088 | inactive: -0.145 | 
18 | PPM1F (UniProt P49593) | inactive: 0.027 | inactive: 0.001 | inactive: 0.001 | inactive: -0.001 | inactive: -0.039
19 | PPP1R8 (UniProt Q12972) | inactive: 0.006 | inactive: 0.017 | inactive: 0.003 | inactive: 0.059 | inactive: -0.142
20 | PPIP5K1 (UniProt Q6PFW1) | inactive: -0.016 | inactive: 0.054 | inactive: 0.021 | inactive: 0.002 | inactive: 0.035
21 | PRDX3 (UniProt P30048) | inactive: -0.015 | inactive: -0.076 | inactive: -0.019 | inactive: -0.036 | inactive: -0.051
22 | PPP1R14A (UniProt Q96A00) | inactive: 0.085 | inactive: -0.02 | inactive: 0.013 | inactive: -0.019 | inactive: -0.076
23 | PPP2R5D (UniProt Q14738) | inactive: -0.026 | inactive: 0.006 | inactive: 0.024 | inactive: -0.013 | inactive: 0.051
24 | PRMT9 (UniProt Q6P2P2) | inactive: -0.069 | inactive: 0.026 | inactive: 0.026 | inactive: 0.011 | inactive: 0
25 | PPP2R2D (UniProt Q66LE6) | inactive: -0.064 | inactive: 0.034 | inactive: -0.024 | inactive: 0.102 | inactive: 0.056
26 | PPM1G (UniProt O15355) | inactive: 0.019 | inactive: -0.001 | inactive: -0.004 | inactive: 0.027 | inactive: 0.017
27 | PPOX (UniProt P50336) | active: 0.579 | inactive: 0.012 | inactive: -0.009 | inactive: -0.02 | inactive: -0.023

Quoted from the listing:
PRDM2 (UniProt Q13029) – log2 fold change [4]: inactive: 0.043
PPP1R12B isoform 6 (UniProt O60237) – log2 fold change [2]: inactive: 0.033

Additional entries.

Row | Target | log2 fold change [1] | log2 fold change [2] | log2 fold change [3] | log2 fold change [4] | log2 fold change [5]
28 | PPP2R5E (UniProt Q16537) | inactive: -0.059 | inactive: 0.006 | inactive: 0.037 | inactive: -0.006 | inactive: -0.02
29 | PRKAR2A (UniProt P13861) | inactive: 0.009 | inactive: 0.012 | inactive: 0.038 | inactive: -0.011 | inactive: 0.027
30 | PPP4R2 (UniProt Q9NY27) | inactive: 0.019 | inactive: 0.025 | inactive: -0.001 | inactive: -0.026 | inactive: -0.009
31 | PPP1R2 (UniProt P41236) | inactive: 0.023 | inactive: 0.023 | inactive: -0.031 | inactive: 0.008 | inactive: -0.006
32 | PRKCSH (UniProt P14314) | inactive: 0 | inactive: -0.002 | inactive: -0.017 | inactive: 0.041 | inactive: 0.021
33 | PRKACB isoform 2 (UniProt P22694) | inactive: -0.042 | inactive: -0.004 | inactive: -0.018 | inactive: -0.009 | inactive: 0.019
34 | PPP1R18 (UniProt Q6NYC8) | inactive: 0.011 | inactive: 0.017 | inactive: 0.06 | inactive: 0.002 | inactive: 0.009
35 | PRDX2 (UniProt P32119) | inactive: 0.016 | inactive: 0.022 | inactive: -0.033 | inactive: 0.031 | inactive: -0.087
36 | PPP2R5A (UniProt Q15172) | inactive: -0.028 | inactive: 0.042 | inactive: 0.026 | inactive: 0.009 | inactive: 0.196
37 | PPP3CA isoform 2 (UniProt Q08209) | inactive: -0.026 | inactive: -0.115 | inactive: -0.017 | inactive: 0.004 | inactive: 0.043
38 | PRKAR2B (UniProt P31323) | inactive: -0.028 | inactive: 0.018 | inactive: 0.011 | inactive: -0.002 | inactive: 0.068
39 | PPME1 isoform 4 (UniProt Q9Y570) | inactive: -0.004 | inactive: 0.013 | inactive: -0.019 | inactive: 0.021 | inactive: 0.007
40 | PPP2R5C isoform 2 (UniProt Q13362) | inactive: -0.016 | inactive: 0.224 | inactive: 0.004 | inactive: -0.136 | inactive: 0.026
41 | PRKCI (UniProt P41743) | inactive: 0.042 | inactive: 0.017 | inactive: -0.014 | inactive: -0.056 | inactive: -0.041
42 | PPIL4 (UniProt Q8WUA2) | inactive: 0.028 | inactive: 0.01 | inactive: -0.001 | inactive: 0.029 | inactive: -0.021
43 | PRIM1 (UniProt P49642) | inactive: 0.009 | inactive: -0.051 | inactive: -0.018 | inactive: -0.006 | inactive: 0.047
44 | PPM1A isoform 3 (UniProt P35813) | inactive: 0.015 | inactive: 0 | inactive: -0.104 | inactive: -0.04 | inactive: -0.001
45 | PPP1CC isoform 2 (UniProt P36873) | inactive: 0.034 | inactive: 0.003 | inactive: 0.029 | inactive: 0.013 | inactive: 0.003
46 | PPP6R3 isoform 5 (UniProt Q5H9R7) | inactive: 0.033 | inactive: 0.008 | inactive: -0.011 | inactive: -0.044 | inactive: -0.019
47 | PRDX1 (UniProt Q06830) | inactive: 0.031 | inactive: -0.019 | inactive: -0.015 | inactive: -0.019 | inactive: -0.067
48 | PRKCSH isoform 2 (UniProt P14314) | inactive: 0.084 | inactive: -0.09 | inactive: -0.067 | inactive: -0.128 | inactive: -0.33
49 | PPM1H (UniProt Q9ULR3) | inactive: 0.011 | inactive: -0.023 | inactive: -0.008 | inactive: 0.062 | inactive: 0.05
50 | PRPF4B (UniProt Q13523) | inactive: 0.097 | inactive: -0.01 | inactive: 0.014 | inactive: 0.02 | inactive: 0.001
51 | PRKX (UniProt P51817) | inactive: -0.081 | inactive: 0.014 | inactive: 0.06 | inactive: -0.001 | inactive: -0.004
52 | PPM1B (UniProt O75688) | inactive: 0.037 | inactive: 0.032 | inactive: 0.015 | inactive: 0.012 | inactive: -0.045
53 | PREP (UniProt P48147) | inactive: 0.006 | inactive: 0.02 | inactive: 0.013 | inactive: -0.02 | inactive: 0.03
54 | PRPF4 (UniProt O43172) | inactive: 0.016 | inactive: -0.004 | inactive: -0.001 | inactive: 0.034 | inactive: 0.085
